The chains behind the UniProt entries cited, without tags or fusion partners.
UniProt P0AC55: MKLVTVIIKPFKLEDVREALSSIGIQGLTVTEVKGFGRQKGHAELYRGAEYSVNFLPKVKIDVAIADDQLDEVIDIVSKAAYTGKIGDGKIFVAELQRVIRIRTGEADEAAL
UniProt P0A9Z1: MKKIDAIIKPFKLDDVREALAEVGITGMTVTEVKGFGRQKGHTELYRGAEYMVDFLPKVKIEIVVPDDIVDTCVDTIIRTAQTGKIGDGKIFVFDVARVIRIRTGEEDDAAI

In article PMC11617674, “The activity of the ribonucleotide monophosphatase UmpH is controlled by interaction with the GlnK signaling protein in Escherichia coli” (The Journal of Biological Chemistry, 2024):

Columns and labels:
[1] = target: His-GlnK (E. coli PII signaling protein GlnK, N-terminal His tag) (E. coli) (UniProt P0AC55); experiment: affinity purification with mass spectrometry; ligand fishing: His-GlnK or His-GlnB held on Ni-IDA columns, loaded with cell-free extract of E. coli FT8000 ΔglnBglnK in 50 mM Tris-HCl pH 8, 0.1 M KCl, 20 mM imidazole, 5 mM MgCl2, 1 mM ATP; eluted with 1 mM ATP + 1.5 mM 2-OG; SDS-PAGE, MALDI-TOF and label-free LC/MS/MS; only the target purified
[2] = target: His-GlnB (E. coli PII signaling protein GlnB, N-terminal His tag) (E. coli) (UniProt P0A9Z1); experiment: as above

Row | binding [1] | binding [2] | Binder
1 | binds | – | GlnE, endogenous in E. coli cell-free extract (enzyme, UniProt P30870 1-946) MKPLSSPLQQYWQTVVERLPEPLAEESLSAQAKSVLTFSDFVQDSVIAHPEWLTELESQPPQADEWQHYAAWLQEALCNVSDEAGLMRELRLFRRRIMVRIAWAQTLALVTEESILQQLSYLAETLIVAARDWLYDACCREWGTPCNAQGEAQPLLILGMGKLGGGELNFSSDIDLIFAWPEHGCTQGGRRELDNAQFFTRMGQRLIKVLDQPTQDGFVYRVDMRLRPFGESGPLVLSFAALEDYYQEQGRDWERYAMVKARIMGDSEGVYANELRAMLRPFVFRRYIDFSVIQSLRNMKGMIAREVRRRGLTDNIKLGAGGIREIEFIVQVFQLIRGGREPSLQSRSLLPTLSAIAELHLLSENDAEQLRVAYLFLRRLENLLQSINDEQTQTLPSDELNRARLAWAMDFADWPQLTGALTAHMTNVRRVFNELIGDDESETQEESLSEQWRELWQDALQEDDTTPVLAHLSEDDRKQVLTLIADFRKELDKRTIGPRGRQVLDHLMPHLLSDVCAREDAAVTLSRITALLVGIVTRTTYLELLSEFPAALKHLISLCAASPMIASQLARYPLLLDELLDPNTLYQPTATDAYRDELRQYLLRVPEDDEEQQLEALRQFKQAQLLRIAAADIAGTLPVMKVSDHLTWLAEAMIDAVVQQAWVQMVARYGKPNHLNEREGRGFAVVGYGKLGGWELGYSSDLDLIFLHDCPMDAMTDGEREIDGRQFYLRLAQRIMHLFSTRTSSGILYEVDARLRPSGAAGMLVTSAEAFADYQKNEAWTWEHQALVRARVVYGDPQLTAHFDAVRREIMTLPREGKTLQTEVREMREKMRAHLGNKHRDRFDIKADEGGITDIEFITQYLVLRYAHEKPKLTRWSDNVRILELLAQNDIMEEQEAMALTRAYTTLRDELHHLALQELPGHVSEDCFTAERELVRASWQKWLVEE
2 | – | no binding | UmpH, endogenous in E. coli cell-free extract (enzyme, UniProt P0AF24 1-250) MTIKNVICDIDGVLMHDNVAVPGAAEFLHGIMDKGLPLVLLTNYPSQTGQDLANRFATAGVDVPDSVFYTSAMATADFLRRQEGKKAYVVGEGALIHELYKAGFTITDVNPDFVIVGETRSYNWDMMHKAAYFVANGARFIATNPDTHGRGFYPACGALCAGIEKISGRKPFYVGKPSPWIIRAALNKMQAHSEETVIVGDNLRTDILAGFQAGLETILVLSGVSSLDDIDSMPFRPSWIYPSVAEIDVI

No constants are given. Whether binding was seen depends on the method and setting. Binding seen in cells or lysates may run through a third protein. These calls come from enrichment with a bait or labelling near it, and not all partners need be listed. For some assays here: A no says only that the protein was not detected with the bait.
